No constants are given. Whether binding was seen depends on the method and setting. Some entries that bind do so weakly or less than the wild type.
How the values were obtained:
[1] = biological target: T1, KIF9 (mouse (endogenous in mouse sperm)) (UniProt Q9WV04); assay: cryo-EM structure
T1 sequence: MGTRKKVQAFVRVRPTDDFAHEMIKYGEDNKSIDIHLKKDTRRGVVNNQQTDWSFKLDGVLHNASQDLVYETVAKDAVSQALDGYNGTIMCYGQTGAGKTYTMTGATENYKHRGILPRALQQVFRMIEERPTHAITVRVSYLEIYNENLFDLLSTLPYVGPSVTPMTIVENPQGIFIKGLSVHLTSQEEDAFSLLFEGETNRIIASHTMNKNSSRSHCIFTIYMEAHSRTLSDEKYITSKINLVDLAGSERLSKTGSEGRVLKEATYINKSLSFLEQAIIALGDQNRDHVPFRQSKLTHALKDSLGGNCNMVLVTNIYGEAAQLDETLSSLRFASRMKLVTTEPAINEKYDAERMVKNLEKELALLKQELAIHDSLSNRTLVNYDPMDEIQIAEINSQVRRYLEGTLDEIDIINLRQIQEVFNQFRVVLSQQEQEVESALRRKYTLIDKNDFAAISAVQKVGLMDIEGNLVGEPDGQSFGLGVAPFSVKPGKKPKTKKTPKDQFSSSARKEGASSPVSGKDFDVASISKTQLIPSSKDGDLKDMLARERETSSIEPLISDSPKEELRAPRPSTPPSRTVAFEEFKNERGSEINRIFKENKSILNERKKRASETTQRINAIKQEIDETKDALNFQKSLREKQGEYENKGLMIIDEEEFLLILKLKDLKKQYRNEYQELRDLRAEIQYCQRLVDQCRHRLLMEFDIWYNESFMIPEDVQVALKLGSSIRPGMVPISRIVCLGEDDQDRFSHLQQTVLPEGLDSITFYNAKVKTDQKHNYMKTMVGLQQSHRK

The chains behind the UniProt entries cited, without tags or fusion partners.
UniProt P63087: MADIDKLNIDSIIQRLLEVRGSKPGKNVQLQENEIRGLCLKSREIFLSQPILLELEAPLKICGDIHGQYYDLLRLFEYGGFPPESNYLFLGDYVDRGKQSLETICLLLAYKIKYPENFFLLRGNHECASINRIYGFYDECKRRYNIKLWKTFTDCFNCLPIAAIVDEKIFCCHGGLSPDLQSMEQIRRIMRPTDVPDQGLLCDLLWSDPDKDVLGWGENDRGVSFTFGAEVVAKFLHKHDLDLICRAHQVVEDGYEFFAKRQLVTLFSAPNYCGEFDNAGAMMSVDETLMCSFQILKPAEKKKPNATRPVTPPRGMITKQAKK
UniProt Q80W93: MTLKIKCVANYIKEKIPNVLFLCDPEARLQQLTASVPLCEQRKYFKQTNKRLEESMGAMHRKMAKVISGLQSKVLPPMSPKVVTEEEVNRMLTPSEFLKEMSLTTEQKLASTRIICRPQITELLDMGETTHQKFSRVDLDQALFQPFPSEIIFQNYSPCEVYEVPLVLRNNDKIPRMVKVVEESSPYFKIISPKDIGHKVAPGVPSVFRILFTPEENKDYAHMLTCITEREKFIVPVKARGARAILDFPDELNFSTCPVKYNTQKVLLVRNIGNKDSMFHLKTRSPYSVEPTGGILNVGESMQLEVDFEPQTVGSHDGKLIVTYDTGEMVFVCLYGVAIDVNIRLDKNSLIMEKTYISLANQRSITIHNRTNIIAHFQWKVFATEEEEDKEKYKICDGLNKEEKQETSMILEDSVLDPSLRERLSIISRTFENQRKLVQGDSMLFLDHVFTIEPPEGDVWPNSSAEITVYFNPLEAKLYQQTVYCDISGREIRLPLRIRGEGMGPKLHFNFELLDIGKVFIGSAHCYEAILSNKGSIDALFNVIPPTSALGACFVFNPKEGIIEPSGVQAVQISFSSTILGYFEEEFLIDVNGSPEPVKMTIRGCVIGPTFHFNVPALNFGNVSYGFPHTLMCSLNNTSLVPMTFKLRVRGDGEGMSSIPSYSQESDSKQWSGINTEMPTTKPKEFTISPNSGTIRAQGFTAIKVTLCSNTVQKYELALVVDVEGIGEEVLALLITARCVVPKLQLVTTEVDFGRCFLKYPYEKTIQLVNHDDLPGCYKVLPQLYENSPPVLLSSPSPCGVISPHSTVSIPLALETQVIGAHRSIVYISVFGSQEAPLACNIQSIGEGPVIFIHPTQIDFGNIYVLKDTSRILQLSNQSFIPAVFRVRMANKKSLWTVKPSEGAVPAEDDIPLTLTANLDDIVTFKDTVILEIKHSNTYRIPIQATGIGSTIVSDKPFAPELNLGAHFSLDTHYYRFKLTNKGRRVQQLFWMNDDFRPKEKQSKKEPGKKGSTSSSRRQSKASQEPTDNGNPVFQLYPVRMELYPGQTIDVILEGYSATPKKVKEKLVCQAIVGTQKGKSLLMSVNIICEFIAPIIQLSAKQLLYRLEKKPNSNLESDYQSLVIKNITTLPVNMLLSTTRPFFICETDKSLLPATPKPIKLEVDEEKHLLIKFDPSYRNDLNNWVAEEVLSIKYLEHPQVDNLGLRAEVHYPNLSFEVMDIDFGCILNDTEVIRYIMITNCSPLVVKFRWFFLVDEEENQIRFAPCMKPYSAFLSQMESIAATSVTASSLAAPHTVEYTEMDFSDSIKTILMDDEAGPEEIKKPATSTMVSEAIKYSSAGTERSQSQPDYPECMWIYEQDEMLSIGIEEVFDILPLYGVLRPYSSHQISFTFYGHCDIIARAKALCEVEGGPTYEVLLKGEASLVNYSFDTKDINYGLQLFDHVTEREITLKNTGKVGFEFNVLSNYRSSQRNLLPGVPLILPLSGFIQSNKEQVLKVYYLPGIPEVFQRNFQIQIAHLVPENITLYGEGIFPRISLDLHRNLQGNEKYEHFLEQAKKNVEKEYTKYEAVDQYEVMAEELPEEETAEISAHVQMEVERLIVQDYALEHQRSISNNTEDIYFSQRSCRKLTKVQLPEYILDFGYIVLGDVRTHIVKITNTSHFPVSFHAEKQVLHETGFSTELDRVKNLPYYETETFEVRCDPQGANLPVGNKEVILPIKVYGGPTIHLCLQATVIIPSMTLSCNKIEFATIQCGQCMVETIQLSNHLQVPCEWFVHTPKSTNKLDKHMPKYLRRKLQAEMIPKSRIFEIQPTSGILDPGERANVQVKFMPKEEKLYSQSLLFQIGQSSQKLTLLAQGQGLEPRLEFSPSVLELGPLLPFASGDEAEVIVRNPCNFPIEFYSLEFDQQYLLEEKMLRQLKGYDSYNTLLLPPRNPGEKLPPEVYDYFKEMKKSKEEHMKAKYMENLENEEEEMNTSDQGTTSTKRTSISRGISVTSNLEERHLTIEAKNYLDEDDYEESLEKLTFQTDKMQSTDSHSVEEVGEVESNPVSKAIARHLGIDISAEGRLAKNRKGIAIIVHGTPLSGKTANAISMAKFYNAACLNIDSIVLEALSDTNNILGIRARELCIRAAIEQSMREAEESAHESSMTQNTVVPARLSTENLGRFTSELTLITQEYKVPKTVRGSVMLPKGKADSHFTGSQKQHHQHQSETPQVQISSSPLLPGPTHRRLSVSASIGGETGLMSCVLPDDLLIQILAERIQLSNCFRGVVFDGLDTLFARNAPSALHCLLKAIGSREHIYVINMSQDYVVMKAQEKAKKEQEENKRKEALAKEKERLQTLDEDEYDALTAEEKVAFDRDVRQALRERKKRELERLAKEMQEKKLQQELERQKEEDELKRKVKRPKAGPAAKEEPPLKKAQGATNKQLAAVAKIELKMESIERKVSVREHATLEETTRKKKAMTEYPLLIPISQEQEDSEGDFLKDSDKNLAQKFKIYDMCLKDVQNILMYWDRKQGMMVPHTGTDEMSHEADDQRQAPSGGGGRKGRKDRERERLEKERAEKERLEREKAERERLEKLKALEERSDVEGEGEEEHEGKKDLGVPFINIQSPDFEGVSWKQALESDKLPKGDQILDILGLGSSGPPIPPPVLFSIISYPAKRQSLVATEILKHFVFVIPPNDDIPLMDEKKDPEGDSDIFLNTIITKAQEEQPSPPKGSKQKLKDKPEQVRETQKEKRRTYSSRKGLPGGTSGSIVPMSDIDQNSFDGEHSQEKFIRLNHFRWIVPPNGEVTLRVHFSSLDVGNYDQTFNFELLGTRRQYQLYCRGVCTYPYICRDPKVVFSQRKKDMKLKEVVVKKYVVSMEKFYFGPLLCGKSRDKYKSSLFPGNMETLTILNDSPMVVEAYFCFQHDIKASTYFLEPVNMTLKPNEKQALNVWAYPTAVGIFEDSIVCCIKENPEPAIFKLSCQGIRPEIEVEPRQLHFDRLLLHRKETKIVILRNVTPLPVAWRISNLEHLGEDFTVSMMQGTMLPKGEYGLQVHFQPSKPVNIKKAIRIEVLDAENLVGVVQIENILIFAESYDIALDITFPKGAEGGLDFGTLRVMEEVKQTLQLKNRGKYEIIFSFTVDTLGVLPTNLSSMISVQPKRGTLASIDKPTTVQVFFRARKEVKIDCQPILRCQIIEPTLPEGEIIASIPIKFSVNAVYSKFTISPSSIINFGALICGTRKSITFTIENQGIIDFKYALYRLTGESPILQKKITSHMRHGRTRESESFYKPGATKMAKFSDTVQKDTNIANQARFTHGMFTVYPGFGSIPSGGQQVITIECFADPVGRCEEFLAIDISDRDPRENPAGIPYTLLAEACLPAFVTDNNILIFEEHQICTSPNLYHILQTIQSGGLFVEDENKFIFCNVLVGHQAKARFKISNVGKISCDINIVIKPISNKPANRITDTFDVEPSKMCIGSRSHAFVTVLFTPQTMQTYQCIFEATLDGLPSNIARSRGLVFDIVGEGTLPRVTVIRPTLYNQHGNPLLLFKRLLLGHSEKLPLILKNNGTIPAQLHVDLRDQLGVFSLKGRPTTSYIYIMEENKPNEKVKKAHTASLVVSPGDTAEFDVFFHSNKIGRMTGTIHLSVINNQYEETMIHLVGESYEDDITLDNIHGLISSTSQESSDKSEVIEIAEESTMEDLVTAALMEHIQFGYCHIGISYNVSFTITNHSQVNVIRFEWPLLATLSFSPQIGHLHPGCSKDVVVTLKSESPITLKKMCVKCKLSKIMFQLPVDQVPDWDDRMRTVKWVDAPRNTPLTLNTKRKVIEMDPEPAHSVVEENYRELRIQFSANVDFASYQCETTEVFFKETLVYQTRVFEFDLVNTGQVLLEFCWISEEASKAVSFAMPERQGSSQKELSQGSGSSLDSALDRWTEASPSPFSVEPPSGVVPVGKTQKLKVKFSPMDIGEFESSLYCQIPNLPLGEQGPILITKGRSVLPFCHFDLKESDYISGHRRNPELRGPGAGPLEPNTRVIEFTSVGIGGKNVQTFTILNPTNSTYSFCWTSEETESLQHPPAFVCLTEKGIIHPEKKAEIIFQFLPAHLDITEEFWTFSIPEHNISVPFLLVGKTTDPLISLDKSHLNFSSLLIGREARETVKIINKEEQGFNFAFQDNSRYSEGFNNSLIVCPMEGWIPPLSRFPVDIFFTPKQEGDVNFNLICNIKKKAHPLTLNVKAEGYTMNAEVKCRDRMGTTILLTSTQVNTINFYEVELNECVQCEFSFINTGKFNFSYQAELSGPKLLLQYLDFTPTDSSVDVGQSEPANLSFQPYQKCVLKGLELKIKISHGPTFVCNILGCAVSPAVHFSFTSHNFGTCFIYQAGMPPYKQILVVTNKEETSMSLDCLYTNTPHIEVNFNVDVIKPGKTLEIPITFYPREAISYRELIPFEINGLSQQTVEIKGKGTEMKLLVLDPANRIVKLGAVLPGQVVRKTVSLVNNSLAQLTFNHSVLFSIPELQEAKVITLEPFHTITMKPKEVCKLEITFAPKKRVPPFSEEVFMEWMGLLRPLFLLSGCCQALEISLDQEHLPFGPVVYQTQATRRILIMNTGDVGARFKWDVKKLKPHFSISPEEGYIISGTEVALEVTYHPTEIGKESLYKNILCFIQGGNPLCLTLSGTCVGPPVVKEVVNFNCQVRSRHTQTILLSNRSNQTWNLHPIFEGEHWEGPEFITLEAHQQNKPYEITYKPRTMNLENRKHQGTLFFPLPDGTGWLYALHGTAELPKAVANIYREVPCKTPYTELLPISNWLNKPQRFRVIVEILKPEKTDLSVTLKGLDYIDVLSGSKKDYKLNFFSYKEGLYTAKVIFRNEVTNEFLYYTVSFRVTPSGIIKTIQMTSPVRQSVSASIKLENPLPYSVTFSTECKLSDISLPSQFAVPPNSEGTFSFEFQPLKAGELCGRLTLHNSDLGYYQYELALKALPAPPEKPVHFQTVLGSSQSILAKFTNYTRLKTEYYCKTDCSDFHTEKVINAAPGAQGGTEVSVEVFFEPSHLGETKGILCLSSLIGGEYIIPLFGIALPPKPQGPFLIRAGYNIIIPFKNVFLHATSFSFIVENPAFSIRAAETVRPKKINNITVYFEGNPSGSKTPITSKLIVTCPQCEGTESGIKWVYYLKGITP

[2] = biological target: Serine/threonine-protein phosphatase PP1-gamma catalytic subunit (PPP1CC) (mouse (endogenous in mouse sperm)) (UniProt P63087); assay: cryo-EM structure

| Substance | binding [1] | binding [2] |
| --- | --- | --- |
| HYDIN (from UniProt Q80W93 1-5154) | binds | – |
| CFAP54 (from UniProt Q8C6S9 1-3106) | – | binds |
